# Test results: PubChem BioAssay AID662 (National Center for Advancing Translational Sciences (NCATS), 2007)
# The list shows a part of the results. The main result of the screen is listed elsewhere. These columns were measured beside it and carry no call. Compounds called inactive in the main read-out are mostly missing here. The note in brackets gives the kind of curve behind each potency; many fits are weak.
# Assay: Cell signaling CRE-BLA (Fsk stim)
# Settings: CHO CRE-bla reporter (cAMP response element driving beta-lactamase), forskolin EC10, beta-lactamase ratio; measured here: 460 nm blue channel
# From the text: NIH Molecular Libraries Screening Centers Network [MLSCN]
# NIH Chemical Genomics Center [NCGC]
# Assay Provider: Marshall W. Nirenberg, U.S. National heart lung & blood institute
# Memories persist for different lengths of time, from seconds or minutes to a lifetime. There are two kinds of memory: short-term memory (STM) and long-term memory (LTM). STM lasts for minutes to hours, which maybe mediated by modifications of molecules involved in synaptic functions. LTM lasts for days or longer, and may be due to the formation of new synapses or restructuring of existing synapses. LTM, but not STM, requires gene transcription and synthesis of proteins. CREB (cyclic-AMP Responsive Element Binding Protein) is one of the candidates plays an important role for enhancement of some types of LTM. CREB, a family of transcription factors, regulates the transcription of genes containing cAMP Responsive Elements (CRE). CRE is a nucleotide sequence often found in the promoter regions of genes that are binding sites for CREB.
# Using a beta-lactamase reporter-gene under control of cAMP responsive element, a cell-based assay [CellSensor(TM) CRE-bla CHO developed by Invitrogen Corp.] was used to measure forskolin-induced signaling. Library compounds were measured for their ability to modulate positively or negatively the action of EC10 NKH 477, a water soluble forskolin, on reporter gene activity. Compounds were screened in a titration series in 1536-well format. Positive and negative modulators were identified based on the AC50 values derived from the screening data.
# NCGC Assay Protocol Summary
# 2000 cells/5uL in Opti-MEM medium containing 0.5% dialyzed FBS, 0.1 mM NEAA, 1 mM sodium pyruvate and 10 mM HEPES was dispensed into 1536-well plates and cells were cultured at 37 degrees Celsius overnight. […] And then the plates were incubated at 37 degrees Celsius for 3 hours. 1 uL of CCF4-dye mixture was added to each well. After incubated at room temperature for 2 hours the plates were measured on an EnVision plate reader at Excitation 405nm, Emission1=460nm and Emission 2=530nm. The %Activity was determined from the ratio of 460nm/530nm.
# Keywords: NIH Roadmap, MLSCN, MLSMR, qHTS, NCGC, CRE, beta-lactamase reporter-gene assay.
row,SMILES,AC50
1,O=C(C1CCCN1S(=O)(=O)c1cccc2cccnc12)N1CCn2c1nc1ccccc12 (configuration not stated),"25.1 µM [rising, single point]"
2,O=C1CCCc2nn(-c3ccccc3)c(-c3ccncc3)c21,"0.2 µM [rising, full curve]"
3,CCCS(=O)(=O)O,"1 µM [falling, single point]"
4,CCOC(=O)/C=C1\NC(C)(C)Cc2cc(OC)c(O)cc21,"6.31 µM [rising, partial curve]"
5,COCCn1c(=O)c(-c2cc(F)cc(F)c2)nc2cnc(N3CCOCC3)nc21,"12.6 µM [rising, partial curve]"
6,N#CC1=C2SCN(c3ccccc3)CN2C(=O)CC1c1c(Cl)cccc1Cl (configuration not stated),"25.1 µM [falling, single point]"
7,COc1ccc(N2CSC3=C(C#N)C(c4cc(OC)c(OC)cc4OC)CC(=O)N3C2)c(OC)c1 (configuration not stated),"6.31 µM [rising, partial curve]"
8,Cn1cc(-c2nc3cnc(Oc4ccccc4)nc3n(C)c2=O)c2ccccc21,"6.31 µM [rising, partial curve]"
9,O=c1cc(-c2ccccc2)oc2c1ccc1ccccc12,"5.01 µM [rising, partial curve, poor fit]"
10,Cc1ccc(-n2c(C)nc3c(cnn3-c3ccc(F)cc3)c2=O)cc1C,"0.631 µM [rising, full curve]"
11,CCCCCCCCCCCCCC(=O)O[C@H](CC(=O)O)C[N+](C)(C)C,"25.1 µM [falling, partial curve]"
12,O=c1c2[nH]c3ccccc3c2ncn1CCCn1ccnc1,"3.98 µM [falling, full curve, poor fit]"
13,O=C(COc1c(F)c(F)c(C(F)(F)F)c(F)c1F)Nc1ccc(N2CCOCC2)c(Cl)c1,"0.251 µM [falling, partial curve]"
14,Oc1ccc(-c2csc(NCc3ccco3)n2)cc1,"12.6 µM [falling, single point]"
15,CC(C)Nc1nc(C#N)nc(NC(C)C)n1,"10 µM [rising, partial curve]"
16,Clc1ccc(-c2nc(-c3ccccn3)no2)cc1Cl,"0.316 µM [rising, full curve]"
17,CC(C)(C)C1CCc2nc(NC(=O)Cc3cn4ccsc4n3)sc2C1 (configuration not stated),"12.6 µM [rising, single point]"
18,CC1CCCCC1N1CCN(C(=O)c2cccc(F)c2)CC1 (configuration not stated),"5.01 µM [falling, single point]"
19,COc1ccccc1-c1nnc(SCc2nc3ccccc3[nH]2)n1C,"10 µM [rising, single point]"
20,c1ccc(-c2cc(-c3nn4c(-c5ccco5)nnc4s3)c3ccccc3n2)cc1,"7.94 µM [rising, partial curve]"
21,COC(=O)[C@@]1(Cc2ccc(F)cc2)[C@@H]2[C@@H](CC(=O)[C@H]2CC(=O)C(=O)N2CCCC2)CN1C(=O)c1ccccc1,"2 µM [rising, full curve]"
22,CCn1c(=N)n(CC(O)COc2cccc(C)c2)c2ccccc21 (configuration not stated),"20 µM [rising, partial curve, poor fit]"
23,Cc1c2ccccc2c(C)c2c1ccc1ccccc12,"25.1 µM [rising, partial curve]"

# Among those listed so far, 3 have a Cl atom.
row,SMILES,AC50
6,N#CC1=C2SCN(c3ccccc3)CN2C(=O)CC1c1c(Cl)cccc1Cl (configuration not stated),"25.1 µM [falling, single point]"
13,O=C(COc1c(F)c(F)c(C(F)(F)F)c(F)c1F)Nc1ccc(N2CCOCC2)c(Cl)c1,"0.251 µM [falling, partial curve]"
16,Clc1ccc(-c2nc(-c3ccccn3)no2)cc1Cl,"0.316 µM [rising, full curve]"

# (listing goes on)

row,SMILES,AC50
1,COCCCN1C(=O)c2[nH]nc(-c3ccccc3O)c2C1c1cccc(Cl)c1 (configuration not stated),"7.94 µM [rising, partial curve, poor fit]"
2,Cc1ccc(S(=O)(=O)c2cc3c(=O)n4ccccc4nc3n(CC3CCCO3)c2=N)cc1 (configuration not stated),"10 µM [rising, partial curve]"
3,O=C1CSC(c2ccccn2)N1c1ccccc1 (configuration not stated),"7.94 µM [falling, partial curve, poor fit]"
4,CCn1c(SCCC#N)nnc1-c1ccncc1,"12.6 µM [falling, single point]"
5,COc1cccc(C(=O)Nc2c3c(nn2-c2cccc(C)c2C)CS(=O)C3)c1OC (configuration not stated),"15.8 µM [rising, partial curve]"
6,COC(=O)[C@@]1(Cc2ccc(OC)cc2)[C@H]2c3cc(C(=O)N4CCCC4)n(CCCNc4ncc(C(F)(F)F)cc4Cl)c3C[C@H]2CN1C(=O)c1ccccc1,"0.126 µM [rising, full curve]"
7,CCCc1cc(=O)[nH]c(SCC(=O)CSc2nc(CCC)cc(=O)[nH]2)n1,"3.98 µM [falling, single point]"
8,Cc1cc(C)n(/N=C/c2c[nH]c3ccccc23)c(=O)c1,"0.398 µM [rising, partial curve]"
9,COc1ccc(C(=O)/C(C)=N/O)cc1OC,"12.6 µM [rising, partial curve]"
10,Cn1cnnc1SCc1ccc(C#N)cc1Cl,"1 µM [rising, single point]"
11,Cc1cccc(Cn2c(SCCO)nc3c2c(=O)n(C)c(=O)n3C)c1,"10 µM [rising, partial curve]"
12,Cn1c(=O)c2c(nc(CN3CCCCC3)n2Cc2c(F)cccc2Cl)n(C)c1=O,"10 µM [rising, partial curve]"
13,CCOC(=O)c1c(NC(=O)Cc2cccs2)sc(C)c1C,"5.01 µM [rising, full curve]"
14,CCCSc1nc(C)c(-c2csc(C(C#N)=C3CCCC3)n2)cc1C#N,"25.1 µM [rising, single point]"
15,COc1cccc(C(=O)CSc2nnnn2C)c1,"5.01 µM [falling, partial curve]"
16,Cc1cccn2c(=O)c3cc(C#N)c(=O)n(CCCN4CCOCC4)c3nc12,"10 µM [rising, partial curve]"
17,Cc1ccc2nc3c(cc(C(N)=S)c(=N)n3CCCOC(C)C)c(=O)n2c1,"12.6 µM [rising, partial curve]"
18,COCCN1Cc2cccc(C(=O)Nc3cc(OC)ccc3OC)c2C1=O,"12.6 µM [rising, single point]"
19,O=c1cc(Cn2ccnc2)c2cc3c(cc2o1)CCC3,"20 µM [rising, single point]"
20,COc1ccc2cc3cc(C(=O)NCC4COc5ccccc5O4)oc3nc2c1 (configuration not stated),"12.6 µM [rising, partial curve]"
21,CC(=O)NCCn1c(SCC(=O)NCCC2=CCCCC2)nc2ccccc2c1=O,"0.00794 µM [rising, full curve, poor fit]"
22,O=C(OCC(COC(=O)c1ccccc1)(COC(=O)c1ccccc1)COC(=O)c1ccccc1)c1ccccc1,"1.26 µM [falling, full curve, poor fit]"
23,CCOC(=O)Cc1csc(NC(=O)CS(=O)(=O)Cc2ccccc2)n1,"25.1 µM [rising, single point]"

row,SMILES,AC50
1,CCSc1ncc(C#N)c(=O)[nH]1,"0.251 µM [falling, full curve]"
2,CCCNC(=O)c1cccc(COCC(F)(F)C(F)F)c1,"0.631 µM [rising, full curve]"
3,CCOC1OC2C(CO)OC(n3cnc4c(N)ncnc43)C2O1 (configuration not stated),"20 µM [rising, single point]"
4,CC(C)C[C@@H](CC(=O)N[C@@H](CCC(=O)O)CC(=O)O)NC(=O)[C@@H]1CCCC[C@H]1NC(=O)C[C@H](CCCN)NC(=O)C[C@H](CO)NC(=O)[C@@H]1CNCC[C@H]1N,"6.31 µM [falling, partial curve, poor fit]"
5,CCNc1nc(N)nc(Oc2ccc(OCCOc3ccccc3)nn2)n1,"10 µM [rising, partial curve]"
6,CCc1ccc2[nH]c(=O)c(CN(CCCN3CCOCC3)C(=O)Nc3ccc(F)cc3)cc2c1,"10 µM [rising, partial curve]"
7,CN(C)c1nccc(Nc2ccccc2)c1C#N,"10 µM [rising, single point]"
8,CCc1cc(=O)oc2cc(OC(C)=O)cc(OC(C)=O)c12,"10 µM [rising, partial curve]"
9,Cn1c(=O)c2c(nc(SCCCC#N)n2Cc2c(F)cccc2Cl)n(C)c1=O,"10 µM [rising, partial curve]"
10,O=C(CC1(O)CCCCC1)OC1CCCC1,"2.51 µM [rising, single point]"
11,COc1ccccc1-c1nnc2sc(COc3ccc(F)cc3)nn12,"1.26 µM [rising, partial curve]"
12,CC(C)CNS(=O)(=O)c1ccc(CCC(=O)O)cc1,"25.1 µM [rising, single point]"
13,CCCn1c(Nc2nc3ccccc3n2C)nc2ccccc21,"3.98 µM [rising, single point]"
14,CCN(Cc1cc2ccccc2[nH]c1=O)C(=O)C1CCCCC1,"25.1 µM [rising, single point]"
15,COc1ccccc1CCn1c(=O)c(-c2ccc(Cl)cc2)nc2cncnc21,"12.6 µM [rising, partial curve]"
16,COc1ccc(S(=O)(=O)CCC(=O)NCCc2ccc(S(N)(=O)=O)cc2)cc1,"0.316 µM [falling, full curve, poor fit]"
17,Cc1ccc(Cn2nnc3c(=O)[nH]c(C4CCN(C(=O)c5cccs5)CC4)nc32)cc1,"12.6 µM [rising, single point]"
18,Cc1c(C(=O)OC2CCCC2C)[nH]c2c1C(=O)CCC2 (configuration not stated),"5.01 µM [rising, partial curve]"
19,COC(=O)[C@H](C)NC(=O)Nc1ccc(OC)c(OC)c1,"20 µM [falling, partial curve]"
20,COc1ccc(C(=O)Nc2cc(-c3nn4c(C)nnc4s3)ccc2C)cc1,"7.94 µM [rising, partial curve]"
21,COCCNc1nc(-c2ccc(N(C)C)cc2)nc2ccccc12,"5.01 µM [rising, partial curve]"
